# The list does not hold the whole screen: it is rich in T/C values a quarter to a half above the control, in often repeated tests (any T/C) and in doses without a T/C. Other doses and runs of a compound stand elsewhere. T/C gives the treated animals as a percentage of the vehicle group. Some entries give survivors of the animals treated and no T/C: the source holds a T/C of zero for them, seemingly a mark for toxic or unscored doses. Some survivor counts are full or nearly so, which does not show that the dose was tolerated: the source hardly ever lists a survival T/C far under the control, and the zero likely stands for such cases as well. Survivors were counted at the toxicity check, usually on the fifth day, unless a day is given; later deaths do not show. Schedule codes are those of the source, read here as Q, the interval in days (D) or hours (H), X, the number of doses. Some entries were tested several times; their values stand side by side, smallest first. Some structures stand for samples that the source files as different forms (salt, stereo form or complex); doses refer to the form tested. Counts like (3×) stand for listed records that agree. For survival time, this PubChem deposit counts one and a half times the control or more as active, and values a quarter to a half above the control carry no call in these data; other NCI protocols may use other cut-offs. Some T/C values carry the count of animals alive at the toxicity check (mostly the fifth day); where none is given, no animal had died by that day.
# Test system: BDF1 mice, P388 leukemia ip, median survival T/C
# Assay: NCI In Vivo Anticancer Drug Screen. Data for tumor model P388 Leukemia (intraperitoneal) in B6D2F1 (BDF1) mice
# Settings: T/C endpoint: median survival time, higher T/C = longer survival
# Method in brief: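 T/C = treated-group survival ÷ vehicle-control survival; tumour transplanted into mice before dosing.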
# [1] = dose: 25.0 mg/kg/injection, schedule: Q01DX009 (ip), vehicle: Klucel (hydroxypropylcellulose) (HPC)
# [2] = dose: 25.0 mg/kg/injection, schedule: Q01DX010 (ip), vehicle: saline
# [3] = dose: 50.0 mg/kg/injection, schedule: Q01DX009 (ip), vehicle: Klucel (hydroxypropylcellulose) (HPC)
# [4] = dose: 100.0 mg/kg/injection, schedule: Q01DX009 (ip), vehicle: Klucel (hydroxypropylcellulose) (HPC)
# [5] = dose: 100.0 mg/kg/injection, schedule: Q01DX009 (ip), vehicle: saline
# [6] = dose: 100.0 mg/kg/injection, schedule: Q01DX010 (ip), vehicle: saline
# [7] = dose: 200.0 mg/kg/injection, schedule: Q04DX003 (ip), vehicle: saline
# [8] = dose: 400.0 mg/kg/injection, schedule: Q04DX003 (ip), vehicle: saline
# [9] = dose: 12.5 mg/kg/injection, schedule: Q01DX009 (ip), vehicle: saline
# [10] = dose: 50.0 mg/kg/injection, schedule: Q01DX009 (ip), vehicle: saline
# [11] = dose: 25.0 mg/kg/injection, schedule: Q01DX009 (ip), vehicle: saline
compound,measurement,setting,value
C[n+]1ccc(Nc2ccc(NC(=O)c3ccc(Nc4cc[n+](C)c5ccc(N)cc45)cc3N)cc2)cc1,T/C,"dose: 0.39 mg/kg/injection, schedule: Q01DX009 (ip), vehicle: Klucel (hydroxypropylcellulose) (HPC)",138 % of control
same,T/C,"dose: 0.78 mg/kg/injection, schedule: Q01DX009 (ip), vehicle: Klucel (hydroxypropylcellulose) (HPC)",135 % of control [5 of 6 alive]
same,T/C,"dose: 1.0 mg/kg/injection, schedule: Q01DX009 (ip), vehicle: saline with Tween-80",141 % of control
same,T/C,"dose: 1.32 mg/kg/injection, schedule: Q04DX003 (ip), vehicle: saline with Tween-80",133 % of control
same,T/C,"dose: 2.0 mg/kg/injection, schedule: Q04DX003 (ip), vehicle: saline with Tween-80",142 % of control
same,T/C,"dose: 2.4 mg/kg/injection, schedule: Q04DX003 (ip), vehicle: saline with Tween-80",145 % of control
same,T/C,"dose: 6.25 mg/kg/injection, schedule: Q04DX003 (ip), vehicle: saline",149 % of control
same,T/C,"dose: 18.7 mg/kg/injection, schedule: Q04DX003 (ip), vehicle: saline",127 % of control
same,T/C,[1],131 % of control
same,T/C,[2],140 % of control
same,survivor count,[3],2 of 6 and 3 of 6
same,survivor count,[4],4 of 6
same,survivor count,[5],5 of 6
same,survivor count,[6],1 of 6
same,survivor count,"dose: 100.0 mg/kg/injection, schedule: Q04DX003 (ip), vehicle: saline",1 of 6 (2×)
same,survivor count,[7],0 of 6
same,survivor count,[8],0 of 6
O=C(CCCN1CCC(C(=O)c2ccc(Cl)cc2)CC1)c1ccc(F)cc1,survivor count,[1],6 of 6
same,survivor count,[3],2 of 6 and 3 of 6
same,survivor count,[4],0 of 6
same,survivor count,"dose: 200.0 mg/kg/injection, schedule: Q01DX009 (ip), vehicle: Klucel (hydroxypropylcellulose) (HPC)",0 of 6
CSc1nc2nc(Cl)c(Cl)nc2[nH]1,survivor count,[9],6 of 6
same,survivor count,[10],6 of 6
same,survivor count,[7],3 of 6
same,survivor count,[8],3 of 6
N=C(N)SCc1ccccc1,survivor count,"dose: 100.0 mg/kg/injection, schedule: Q01DX001 (ip), vehicle: saline",3 of 6
same,survivor count,"dose: 200.0 mg/kg/injection, schedule: Q01DX001 (ip), vehicle: saline",0 of 6
c1cc2n(n1)CCN2,T/C,"dose: 200.0 mg/kg/injection, schedule: Q04DX003 (ip), vehicle: saline with Tween-80",130 % of control
same,survivor count,"dose: 400.0 mg/kg/injection, schedule: Q01DX009 (ip), vehicle: water",3 of 6
same,T/C,"dose: 400.0 mg/kg/injection, schedule: Q04DX003 (ip), vehicle: saline with Tween-80",140 % of control [5 of 6 alive]
COc1c(C)c2c3c4c1C(=O)C(=CC4=O)NC(=O)/C(C)=C\C=C\C(C)C1OC(C)(C)OC(C1C)C(C)C(OC(C)=O)C(C)C(OC)/C=C/OC(C)(O2)C3=O (configuration not stated),survivor count,"dose: 100.0 mg/kg/injection, schedule: Q01DX009 (ip), vehicle: saline with Tween-80",6 of 6
same,survivor count,"dose: 200.0 mg/kg/injection, schedule: Q01DX009 (ip), vehicle: saline with Tween-80",6 of 6
c1ccc([P+](CCN2Cc3ccccc3C2)(c2ccccc2)c2ccccc2)cc1,survivor count,[11],6 of 6
same,survivor count,[10],1 of 6
COC(=O)C1c2cc3c(cc2C(OC2OC(C)C(OC)C(C)(OC)C2OC)CC1(C)O)C(=O)c1c(O)cc2c(c1C3=O)OC1OC2(C)C(O)C([N+](C)(C)[O-])C1O (configuration not stated),survivor count,[2],2 of 6 and 4 of 6
same,survivor count,"dose: 50.0 mg/kg/injection, schedule: Q01DX010 (ip), vehicle: saline",2 of 6
same,survivor count,[6],0 of 6
same,survivor count,"dose: 200.0 mg/kg/injection, schedule: Q01DX010 (ip), vehicle: saline",0 of 6
CC1CN1P1(N2CC2C)=NP(N2CC2C)(N2CC2C)=NP(N2CC2C)(N2CC2C)=N1 (configuration not stated),T/C,"dose: 10.0 mg/kg/injection, schedule: Q01DX009 (ip), vehicle: saline",130 % of control
same,T/C,"dose: 11.0 mg/kg/injection, schedule: Q01DX009 (ip), vehicle: saline",126 % of control
same,T/C,[9],138 % of control
same,T/C,"dose: 50.0 mg/kg/injection, schedule: Q04DX003 (ip), vehicle: saline",130 % of control
same,survivor count,[5],5 of 6
same,survivor count,"dose: 200.0 mg/kg/injection, schedule: Q01DX009 (ip), vehicle: saline",5 of 6
same,survivor count,[7],4 of 6
same,survivor count,[8],0 of 6
CC(=O)OC1C(CO)OC2C1Oc1nc(=N)c(F)cn12 (configuration not stated),T/C,"dose: 0.39 mg/kg/injection, schedule: Q01DX009 (ip), vehicle: saline",130 % of control
same,T/C,"dose: 0.78 mg/kg/injection, schedule: Q01DX009 (ip), vehicle: saline",141 % of control
same,survivor count,"dose: 6.25 mg/kg/injection, schedule: Q01DX009 (ip), vehicle: saline",6 of 6
same,survivor count,[9],6 of 6
same,survivor count,[11],6 of 6
same,survivor count,[10],6 of 6

# Reference: PubChem BioAssay AID328 (DTP/NCI, 2004)
